Here are results for one molecule from doi:10.1101/192500 (bioRxiv, 2018).

Protein sequences, listed by entry. Tags and fused reporters are not part of them. Lines headed by an entry give the natural chain unless they say otherwise; changes in a name come on top.
UniProt P76506: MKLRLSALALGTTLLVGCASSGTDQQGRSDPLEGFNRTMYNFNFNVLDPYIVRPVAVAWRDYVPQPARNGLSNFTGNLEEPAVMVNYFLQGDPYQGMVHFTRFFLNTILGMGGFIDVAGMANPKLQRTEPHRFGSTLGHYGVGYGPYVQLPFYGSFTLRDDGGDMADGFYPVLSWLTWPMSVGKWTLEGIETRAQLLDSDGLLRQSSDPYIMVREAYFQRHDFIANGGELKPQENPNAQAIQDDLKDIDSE

Results are given in words; binding and its absence hold for the method and conditions named. Binding seen in cells or lysates may run through a third protein. Binding can be weak; no strength is given.

The target in the assay is MlaA 3G3P/mlaA* combination mutant-His (E. coli) (UniProt P76506). Nature of the assay: pull-down.

B1: OmpC (wild type, from the chromosomal locus) (protein, UniProt P06996 22-367)
chain: AEVYNKDGNKLDLYGKVDGLHYFSDNKDVDGDQTYMRLGFKGETQVTDQLTGYGQWEYQIQGNSAENENNSWTRVAFAGLKFQDVGSFDYGRNYGVVYDVTSWTDVLPEFGGDTYGSDNFMQQRGNGFATYRNTDFFGLVDGLNFAVQYQGKNGNPSGEGFTSGVTNNGRDALRQNGDGVGGSITYDYEGFGIGGAISSSKRTDAQNTAAYIGNGDRAETYTGGLKYDANNIYLAAQYTQTYNATRVGSLGWANKAQNFEAVAQYQFDFGLRPSLAYLQSKGKNLGRGYDDEDILKYVDVGATYYFNKNMSTYVDYKINLLDDNQFTRDAGINTDNIVALGLVYQF
Consider B1, for which the binding result was “binds”.
